The chains behind the UniProt entries cited, without tags or fusion partners. Where a name states a change or a piece, a line headed by the entry shows the natural chain unless it says otherwise.
UniProt P18054: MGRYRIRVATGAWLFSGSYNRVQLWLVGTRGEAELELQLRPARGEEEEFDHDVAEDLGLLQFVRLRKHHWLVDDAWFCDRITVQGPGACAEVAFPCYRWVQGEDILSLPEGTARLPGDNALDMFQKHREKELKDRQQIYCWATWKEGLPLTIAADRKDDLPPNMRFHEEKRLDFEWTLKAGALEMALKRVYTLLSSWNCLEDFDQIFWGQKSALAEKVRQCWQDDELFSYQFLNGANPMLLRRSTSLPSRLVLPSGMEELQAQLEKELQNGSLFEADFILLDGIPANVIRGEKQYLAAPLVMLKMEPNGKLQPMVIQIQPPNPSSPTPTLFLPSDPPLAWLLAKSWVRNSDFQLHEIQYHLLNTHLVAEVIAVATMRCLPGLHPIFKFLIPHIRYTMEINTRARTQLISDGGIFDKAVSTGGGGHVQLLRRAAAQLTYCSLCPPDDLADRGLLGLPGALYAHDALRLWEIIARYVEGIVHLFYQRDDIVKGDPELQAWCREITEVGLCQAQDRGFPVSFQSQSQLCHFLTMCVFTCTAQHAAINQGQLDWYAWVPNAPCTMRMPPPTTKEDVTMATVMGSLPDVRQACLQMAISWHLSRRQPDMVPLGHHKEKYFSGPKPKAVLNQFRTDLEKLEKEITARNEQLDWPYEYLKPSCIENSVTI

The whole screen tested about 580,000 compounds, of which about 6,100 (1.1%) were called active. This list was built around the results that the source calls inconclusive (neither active nor inactive); the mix of calls is not that of the screen. Calls follow the shape of the dose curve; as a rule, active = well fitted inhibition curve with a large enough effect; inconclusive = small, poorly fitted or top-dose-only effect, or another doubt; inactive = no such curve, though single readings can be large or run the other way. Where the call is inconclusive, the potency comes from a doubtful curve fit.
Each compound was assayed against Polyunsaturated fatty acid lipoxygenase ALOX12 (Homo sapiens) (UniProt P18054) (assay: Primary qHTS assay for inhibitors of human arachidonate 12S-lipoxygenase (ALOX12): Round 2). Conditions: purified 12hLO, xylenol orange hydroperoxide absorbance; series mostly up to 108 µM.
Outline: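 Purified human 12hLO at 150 nM in 25 mM Hepes, 0.01% Triton X-100, pH 7.0, preincubated 15 min at room temperature with compound. Reaction started with 40 uM arachidonic acid, 30 min at room temperature. Hydroperoxide measured by Fe-xylenol orange, 573/405 nm absorbance ratio.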
Cc1ccc(NCc2ccc([N+](=O)[O-])s2)cc1 was tested, and the Potency was inconclusive: 44.7 µM [inhibitor, partial curve]. CC1(C)Cc2c(C#N)c(N3CCN(C(=O)c4ccco4)CC3)nc(Cc3ccccc3)c2CO1 was tested, and the Potency was inconclusive: 31.6 µM [inhibitor, single point]. In the case of FC(F)(F)c1cnc(NNC(=S)Nc2cccnc2)c(Cl)c1, the Potency is reported as “inactive”. In the case of COc1ccccc1N1CCN(c2ncccc2CNC(=O)c2ccco2)CC1, the Potency is reported as “inactive”. O=C(CSc1ccc2ccccc2c1)c1ccc[nH]1 was tested, and the Potency was inconclusive: 89.1 µM [inhibitor, single point]. With O=Cc1ccc(-c2ccccc2Br)o1 the Potency was inconclusive: 112 µM [inhibitor, single point]. For Cc1ccc([C@H]2C[C@@H](O)[C@@H](O)[C@@H]2N2CCCCC2)cc1, the Potency was inconclusive: 89.1 µM [inhibitor, partial curve]. For CCCn1c(CNc2ccccc2O)nc2ccccc21, the Potency was inconclusive: 79.4 µM [inhibitor, partial curve, poor fit]. In the case of CCN(CC(=O)NCc1ccc(Cl)cc1)C(=O)CSCC(=O)Nc1cccc(C)c1, the Potency is reported as inconclusive: 112 µM [inhibitor, partial curve, poor fit]. For CCS(=O)(=O)C1=NN2C(=N)/C(=C\c3ccc(OC(=O)c4ccco4)cc3)C(=O)N=C2S1, the Potency was inconclusive: 56.2 µM [inhibitor, partial curve, poor fit]. With O=C1NC(=Nc2ccccc2)/C(=C/c2ccco2)S1 the Potency was inconclusive: 35.5 µM [inhibitor, partial curve, poor fit]. For Cc1ccc(CCN2CCCC3(Cc4ccccc4CN([S+](C)(=O)[O-])C3)C2)cc1 (configuration not stated), the Potency was inconclusive: 39.8 µM [inhibitor, partial curve, poor fit]. COc1ccc(N(Cc2cc(CN3CCOCC3)cs2)S(=O)(=O)c2cc(C)cc(C)c2)cc1 was tested, and the Potency was inconclusive: 50.1 µM [inhibitor, partial curve, poor fit]. COc1ccc(C(=O)N2CCN(CCc3ccccn3)CC2)cc1 was tested, and the Potency was inconclusive: 28.2 µM [inhibitor, partial curve, poor fit]. NC(=S)N/N=C/c1cn(CCC(=O)O)nc1-c1cccc(Br)c1 was tested, and the Potency was inconclusive: 56.2 µM [inhibitor, partial curve, poor fit]. For CCCNC(=O)[C@@H]1Cc2cn(Cc3c(C)noc3C)c3cccc(c23)[C@H](CC(C)C)N1, the Potency was inconclusive: 10 µM [inhibitor, full curve]. With Cc1ccc(Nc2cc(=O)[nH]c(=O)[nH]2)c(C)c1 the Potency was “inactive”.

Reference: PubChem BioAssay AID1671190 (National Center for Advancing Translational Sciences (NCATS), 2021)
Potency is read from the fitted curve at half-maximal effect.
